Results are given in words; binding and its absence hold for the method and conditions named. Some binding calls cover weakened binding; strength is not graded here. Tags and fused reporters may be left off the sequences shown.
T1: Plasmodium falciparum histidine-rich protein II (HRP-II) (Plasmodium falciparum) (UniProt P05227)
T1 sequence (looked up): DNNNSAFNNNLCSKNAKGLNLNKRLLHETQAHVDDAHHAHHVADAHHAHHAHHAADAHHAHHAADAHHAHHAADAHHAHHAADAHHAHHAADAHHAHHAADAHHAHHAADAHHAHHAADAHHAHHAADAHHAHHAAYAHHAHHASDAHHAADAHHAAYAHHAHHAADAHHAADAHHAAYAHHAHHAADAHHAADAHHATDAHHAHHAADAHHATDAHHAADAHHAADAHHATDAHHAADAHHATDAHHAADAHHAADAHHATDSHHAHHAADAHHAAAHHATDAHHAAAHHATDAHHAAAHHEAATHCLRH


Tests used:
[1] = molecular target: T1, Plasmodium falciparum histidine-rich protein II (HRP-II) (Plasmodium falciparum); assay: indirect ELISA, coated HRP-II
[2] = molecular target: T1, Plasmodium falciparum histidine-rich protein II (HRP-II) (Plasmodium falciparum); assay: ELISA activity and ELISA-derived affinity
[3] = molecular target: T1, Plasmodium falciparum histidine-rich protein II (HRP-II) (Plasmodium falciparum); assay: indirect ELISA, coated MA-HRPII Ag

Binder | binding [1] | binding [2] | binding [3]
Anti-HRP-II 3R5 monoclonal antibody (recombinant, expressed in CHO cells; WT) (antibody, mouse IgG2b, kappa, V domains shown, Mouse IgG; also called Anti-HRP-H3R5; CHO transient-transfected cell supernatant) VH: EVQLQQSGPEVVKPGASVKISCKASGSTLTEYYMNWVKQSHGKGLEWIGDLNPINGGTPYQQKFRDKATLTVDKSSNTAYMELRSLTSEDSALYYCTRGAEEYWGQGTTLTVSS VL: DVVLTQTPLSLSVTIGQPASISCKSSQSIIYSNGKIYINWFQQRPGQSPKRLMYQLSKIDPGIPDRFSGSGSETDFTLKISRVEAEDLGVYYCLQGTYSPNTFGGGTKLEIKR | binds |  | 
Mutation 1 (antibody, mouse IgG2b, kappa, V domains shown, also called Variant 1) VH: EVQLQQSGPEVVKPGASVKISCKASGSTLTDYYMNWVKQSHGKGLEWIGDLNPINGGTAYQQKFRDKATLTVDKSSNTAYMELRSLTSEDSALYYCTRGAEDYWGQGTTLTVSS VL: DVVLTQTPLSLSVTIGQPASISCKSSQSIIYSNGKIYLNWFQQRPGQSPKRLMYQLSKLDPGIPDRFSGSGSETDFTLKISRVEAEDLGVYYCLQGTYSPQTFGGGTKLEIKR |  | binds | binds
Mutation 2 (antibody, mouse IgG2b, kappa, V domains shown, WT as framework) VH: EVQLQQSGPEVVKPGASVKISCKASGSTLTEYYMNWVKQSHGKGLEWIGDLNPINGGTPYQQKFRDKATLTVDKSSNTAYMELRSLTSEDSALYYCTRGAEEYWGQGTTLTVSS VL: DVVLTQTPLSLSVTIGQPASISCKSSQSIIYSNGKIYLNWFQQRPGQSPKRLMYQLSKIDPGIPDRFSGSGSETDFTLKISRVEAEDLGVYYCLQGTYSPNTFGGGTKLEIKR |  |  | binds

From patent publication US20220002395A1 (FAPON BIOTECH, published 2022)
